Assay results as given in PubChem BioAssay (EPA / NIEHS).
This list was built around the results that the source calls inconclusive (neither active nor inactive); the mix of calls is not that of the screen. For part of these data: Potencies beside an inconclusive call are fits to weak or partial responses and may not hold up. Activity calls are given as the source filed them. How the source made its calls: active means hit-call score of the fitted dose curve at least 0.9, where 1 is the maximum; inconclusive means response in the unintended direction; inactive means score below 0.9.

Sequences of proteins named here, by UniProt entry; tags and fusion partners are left off. A change or cut given only in a name is not applied to a line headed by its entry.
UniProt Q01717: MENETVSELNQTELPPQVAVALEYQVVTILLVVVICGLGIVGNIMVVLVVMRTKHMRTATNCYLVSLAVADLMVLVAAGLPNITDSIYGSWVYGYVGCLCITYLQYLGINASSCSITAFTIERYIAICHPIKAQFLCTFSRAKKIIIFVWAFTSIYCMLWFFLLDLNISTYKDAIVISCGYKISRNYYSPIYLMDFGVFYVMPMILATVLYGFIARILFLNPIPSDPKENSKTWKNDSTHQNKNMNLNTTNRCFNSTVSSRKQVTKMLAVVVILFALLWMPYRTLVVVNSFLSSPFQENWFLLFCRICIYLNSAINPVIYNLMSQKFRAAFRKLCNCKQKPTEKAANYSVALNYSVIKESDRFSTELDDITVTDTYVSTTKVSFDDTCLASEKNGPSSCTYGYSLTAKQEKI
UniProt P04150: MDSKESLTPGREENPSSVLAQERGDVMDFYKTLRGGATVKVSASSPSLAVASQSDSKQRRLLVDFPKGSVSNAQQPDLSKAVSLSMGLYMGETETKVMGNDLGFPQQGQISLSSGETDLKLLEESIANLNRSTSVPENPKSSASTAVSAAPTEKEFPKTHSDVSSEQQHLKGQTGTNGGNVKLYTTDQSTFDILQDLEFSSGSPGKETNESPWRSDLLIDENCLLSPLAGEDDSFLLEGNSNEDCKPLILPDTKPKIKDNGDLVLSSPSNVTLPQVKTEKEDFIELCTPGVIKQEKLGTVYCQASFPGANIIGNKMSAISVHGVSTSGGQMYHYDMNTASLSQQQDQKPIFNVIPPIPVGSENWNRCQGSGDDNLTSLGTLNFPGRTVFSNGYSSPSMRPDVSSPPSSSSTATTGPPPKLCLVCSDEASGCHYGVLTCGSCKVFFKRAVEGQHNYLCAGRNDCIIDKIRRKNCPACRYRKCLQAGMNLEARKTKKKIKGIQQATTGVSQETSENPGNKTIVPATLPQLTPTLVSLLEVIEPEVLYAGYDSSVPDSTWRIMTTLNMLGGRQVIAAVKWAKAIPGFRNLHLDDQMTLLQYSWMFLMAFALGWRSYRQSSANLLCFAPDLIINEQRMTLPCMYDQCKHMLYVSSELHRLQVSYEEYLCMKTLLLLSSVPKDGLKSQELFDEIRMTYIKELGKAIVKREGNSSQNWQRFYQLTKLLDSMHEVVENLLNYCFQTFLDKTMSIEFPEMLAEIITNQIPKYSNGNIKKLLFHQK
UniProt Q96RI1: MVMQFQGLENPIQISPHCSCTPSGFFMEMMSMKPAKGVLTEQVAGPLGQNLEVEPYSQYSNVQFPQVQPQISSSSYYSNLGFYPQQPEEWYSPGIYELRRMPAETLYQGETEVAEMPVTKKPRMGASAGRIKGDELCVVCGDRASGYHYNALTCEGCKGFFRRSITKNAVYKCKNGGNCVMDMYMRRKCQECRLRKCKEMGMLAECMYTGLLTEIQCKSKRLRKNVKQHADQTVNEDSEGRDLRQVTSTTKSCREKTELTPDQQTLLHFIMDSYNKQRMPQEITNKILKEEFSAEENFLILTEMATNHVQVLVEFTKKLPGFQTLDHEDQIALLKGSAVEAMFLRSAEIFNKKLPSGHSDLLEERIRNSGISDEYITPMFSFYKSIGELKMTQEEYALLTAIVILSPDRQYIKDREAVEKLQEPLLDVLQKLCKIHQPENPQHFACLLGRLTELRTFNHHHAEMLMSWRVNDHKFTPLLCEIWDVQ
UniProt P04406: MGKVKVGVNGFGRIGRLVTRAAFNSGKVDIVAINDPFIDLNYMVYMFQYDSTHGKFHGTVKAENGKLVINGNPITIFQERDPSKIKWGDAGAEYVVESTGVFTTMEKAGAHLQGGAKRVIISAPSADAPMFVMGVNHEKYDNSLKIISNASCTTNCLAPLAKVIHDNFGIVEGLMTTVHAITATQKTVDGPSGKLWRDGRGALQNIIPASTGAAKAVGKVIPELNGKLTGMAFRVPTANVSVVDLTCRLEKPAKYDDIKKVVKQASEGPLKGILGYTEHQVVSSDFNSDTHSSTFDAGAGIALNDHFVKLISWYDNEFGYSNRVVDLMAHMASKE
UniProt P33261, whole entry, looked up: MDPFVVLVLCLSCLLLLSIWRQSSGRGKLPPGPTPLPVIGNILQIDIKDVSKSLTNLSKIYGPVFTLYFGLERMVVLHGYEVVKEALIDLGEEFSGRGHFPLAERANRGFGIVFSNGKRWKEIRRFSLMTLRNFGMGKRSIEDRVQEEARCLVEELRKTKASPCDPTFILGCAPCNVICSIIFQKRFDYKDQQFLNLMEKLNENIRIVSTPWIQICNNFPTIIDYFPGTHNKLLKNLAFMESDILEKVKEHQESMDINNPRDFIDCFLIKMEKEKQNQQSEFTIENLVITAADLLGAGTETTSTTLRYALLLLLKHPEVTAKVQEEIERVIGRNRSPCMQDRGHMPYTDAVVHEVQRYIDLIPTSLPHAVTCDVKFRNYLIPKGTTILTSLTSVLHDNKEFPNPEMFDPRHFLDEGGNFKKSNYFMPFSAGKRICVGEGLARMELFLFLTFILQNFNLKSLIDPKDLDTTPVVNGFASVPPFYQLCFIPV
UniProt P11712, whole entry, looked up: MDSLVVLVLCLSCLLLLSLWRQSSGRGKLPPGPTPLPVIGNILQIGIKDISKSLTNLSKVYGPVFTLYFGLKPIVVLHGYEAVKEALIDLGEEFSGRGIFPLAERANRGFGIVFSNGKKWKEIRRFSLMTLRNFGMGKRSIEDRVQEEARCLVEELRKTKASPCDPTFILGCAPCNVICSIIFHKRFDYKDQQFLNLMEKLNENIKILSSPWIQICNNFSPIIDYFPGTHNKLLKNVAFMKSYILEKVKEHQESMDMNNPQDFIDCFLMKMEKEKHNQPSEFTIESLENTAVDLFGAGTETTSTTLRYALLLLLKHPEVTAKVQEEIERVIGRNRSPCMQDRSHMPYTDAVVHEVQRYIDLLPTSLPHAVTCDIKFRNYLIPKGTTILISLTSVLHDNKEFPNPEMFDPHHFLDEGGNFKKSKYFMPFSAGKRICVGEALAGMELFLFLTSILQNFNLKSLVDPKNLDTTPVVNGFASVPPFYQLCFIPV
UniProt Q9UNQ0: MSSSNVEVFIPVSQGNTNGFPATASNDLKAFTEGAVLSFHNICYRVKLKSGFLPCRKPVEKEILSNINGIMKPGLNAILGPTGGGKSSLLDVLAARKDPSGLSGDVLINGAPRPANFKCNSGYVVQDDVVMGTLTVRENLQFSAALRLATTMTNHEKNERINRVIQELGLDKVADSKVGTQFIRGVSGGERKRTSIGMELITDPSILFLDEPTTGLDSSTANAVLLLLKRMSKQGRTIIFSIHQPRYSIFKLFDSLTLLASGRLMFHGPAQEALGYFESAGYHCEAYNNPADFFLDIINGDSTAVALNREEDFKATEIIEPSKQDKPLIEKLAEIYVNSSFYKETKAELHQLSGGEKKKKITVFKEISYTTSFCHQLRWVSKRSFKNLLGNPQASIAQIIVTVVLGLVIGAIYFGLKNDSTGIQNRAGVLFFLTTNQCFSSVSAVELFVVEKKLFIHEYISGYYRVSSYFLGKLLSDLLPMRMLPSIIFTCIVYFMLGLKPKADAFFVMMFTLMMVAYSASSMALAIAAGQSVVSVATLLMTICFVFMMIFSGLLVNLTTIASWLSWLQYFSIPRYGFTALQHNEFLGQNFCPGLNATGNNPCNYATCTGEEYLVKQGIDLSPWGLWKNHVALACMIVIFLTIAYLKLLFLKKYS
UniProt O75469: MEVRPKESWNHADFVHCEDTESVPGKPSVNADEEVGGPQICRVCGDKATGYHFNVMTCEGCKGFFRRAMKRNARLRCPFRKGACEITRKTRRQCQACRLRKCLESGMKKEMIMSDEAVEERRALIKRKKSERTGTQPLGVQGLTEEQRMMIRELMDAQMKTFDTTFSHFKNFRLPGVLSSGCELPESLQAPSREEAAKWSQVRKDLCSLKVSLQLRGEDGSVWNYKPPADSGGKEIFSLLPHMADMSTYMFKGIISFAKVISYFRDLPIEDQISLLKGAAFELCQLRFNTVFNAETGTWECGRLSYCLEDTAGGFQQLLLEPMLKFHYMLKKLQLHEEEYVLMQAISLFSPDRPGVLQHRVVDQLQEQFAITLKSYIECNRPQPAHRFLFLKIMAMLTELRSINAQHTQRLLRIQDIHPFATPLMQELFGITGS

Key:
[1] = molecular target: rat Thyrotropin Releasing Hormone Receptor (TRH), Trhr (gene 25570) (UniProt Q01717); assay: NVS_GPCR_rTRH: NovaScreen (NVS) G Protein-Coupled Receptor Assay for rat Thyrotropin Releasing Hormone Receptor (TRH) (AID 2283329);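 further: hit means lower bound tracer signal versus DMSO baseline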
Procedure, shortened: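 Rat forebrain membrane prep, radioligand displacement, filter scintillation readout at 4 h. Single conc 25 uM, duplicate; actives retested as concentration series. DMSO = negative control/baseline.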

[2] = molecular target: Glucocorticoid receptor (Homo sapiens) (UniProt P04150); assay: ATG_GR_TRANS: Attagene TRANS-FACTORIAL HepG2 Assay for human Glucocorticoid Receptor (GR) (AID 2282978); settings: HepG2 Attagene TRANS GR reporter, mRNA transcription;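 further: activators score as hits since higher reporter transcript over DMSO is fitted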
Procedure, shortened: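 In this trans-factorial format, exogenous NR-GAL4 chimeric proteins in transfected HepG2 cells regulate GAL4-UAS reporter transcription. After 24 h treatment, reporter mRNA induction relative to DMSO is read by RT-PCR and capillary electrophoresis.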

[3] = molecular target: Bile acid receptor (Homo sapiens) (UniProt Q96RI1); assay: ATG_FXR_TRANS: Attagene TRANS-FACTORIAL HepG2 Assay for Farnesoid X Receptor (FXR) (AID 2282979); settings: HepG2 Attagene TRANS FXR-GAL4 reporter transcription;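 further: hits raise reporter mRNA above DMSO so AC50 marks FXR activation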
Procedure, shortened: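 Transient transfection of HepG2 with multiplexed GAL4-UAS reporter units; exogenous FXR-GAL4 chimera. Dose 24 h → TriZol RNA → oligo(dT) RT → PCR, 6-FAM primer extension, HpaI cut → CE. Gain vs DMSO.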

[4] = ATG_Hpa5_TRANS: Attagene TRANS-FACTORIAL HepG2 Assay for human GAL4-Hpa5 Hepatocyte Transcription Factor Basal Promoter (AID 2282975); settings: HepG2 Attagene GAL4-Hpa5 transcription reporter;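 on outcome: hits are increases in reporter mRNA over DMSO baseline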
Procedure, shortened: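 Gain-of-signal versus DMSO is fitted for reporter mRNA quantified by RT-PCR and capillary electrophoresis after 24 h exposure. This endpoint is an internal background marker in transiently transfected HepG2 cells carrying GAL4-UAS reporter units.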

[5] = CLD_ACTIN_6hr: CellzDirect (CLD) Gene Expression Assay for Baseline Control (Actin) at 6 hours (AID 2283676);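 on outcome: active means increased actin mRNA relative to DMSO vehicle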
Procedure, shortened: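 Baseline actin transcript level measured by qNPA (S1 nuclease protection, chemiluminescence) in human hepatocyte cultures 6 h after chemical exposure; 0.2% DMSO vehicle as reference, cytotoxicity noted from morphology.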

[6] = read-out: Glyceraldehyde-3-phosphate dehydrogenase (Homo sapiens) (UniProt P04406); assay: CLD_GAPDH_6hr: CellzDirect (CLD) Gene Expression Assay for Baseline Control (Glyceraldehyde 3-phosphate dehydrogenase) at 6 hours (AID 2283681);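 further: active means increased signal relative to DMSO vehicle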
Procedure, shortened: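 GAPDH baseline-control readout from qNPA (S1 nuclease digestion, probe hybridization, chemiluminescence) in lysates of cultured human hepatocytes harvested 6 h post-dosing. Chemicals tested at multiple concentrations versus 0.2% DMSO vehicle; microscopy-based cytotoxicity flagged yes/no.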

[7] = read-out: HMG-CoA synthase (HMGCS2), HMGCS2 (gene 3158); assay: CLD_HMGCS2_6hr: CellzDirect (CLD) Gene Expression Assay for HMG-CoA synthase (HMGCS2) at 6 hours (AID 2283682);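 further: actives raise HMGCS2 transcript above the 0.2% DMSO vehicle baseline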
Procedure, shortened: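 HMGCS2 transcript induction read by quantitative nuclease protection with chemiluminescence, 6 h after dosing of primary human hepatocytes. Baseline was 0.2% DMSO vehicle; phase-contrast morphology gave a yes/no cytotoxicity annotation.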

[8] = read-out: Cytochrome P450 2C19 (Homo sapiens) (UniProt P33261); assay: CLD_CYP2C19_24hr: CellzDirect (CLD) Gene Expression Assay for xenobiotic metabolism (CYP2C19) at 24 hours (AID 2283687);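 on outcome: activity means mRNA induction above DMSO vehicle baseline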
Procedure, shortened: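 CYP2C19 mRNA was quantified by qNPA chemiluminescence after 24 h of daily dosing of cultured human primary hepatocytes from two donors; vehicle was 0.2% DMSO, and increases over DMSO baseline were fitted.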

[9] = read-out: Cytochrome P450 2C9 (Homo sapiens) (UniProt P11712); assay: CLD_CYP2C9_24hr: CellzDirect (CLD) Gene Expression Assay for xenobiotic metabolism (CYP2C9) at 24 hours (AID 2283688)
Procedure, shortened: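 Induction of CYP2C9 mRNA was quantified by quantitative nuclease protection assay (chemiluminescence), gain of signal versus 0.2% DMSO vehicle, 24 h after dosing. Human primary hepatocytes (two donors) received fresh chemical daily at multiple concentrations; morphology-based cytotoxicity flagged yes/no.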

[10] = read-out: Glyceraldehyde-3-phosphate dehydrogenase (Homo sapiens) (UniProt P04406); assay: CLD_GAPDH_24hr: CellzDirect (CLD) Gene Expression Assay for Baseline Control (Glyceraldehyde 3-phosphate dehydrogenase) at 24 hours (AID 2283692)
Procedure, shortened: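 GAPDH baseline-control readout: qNPA chemiluminescent mRNA signal in human primary hepatocytes harvested 24 h after daily dosing, normalised to 0.2% DMSO with positive fitting direction; cytotoxicity annotated by phase-contrast morphology.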

[11] = read-out: ABC Transporter (ABCB11), ABCB11 (gene 8647); assay: CLD_ABCB11_48hr: CellzDirect (CLD) Gene Expression Assay for ABC Transporter (ABCB11) at 48 hours (AID 2283697)
Procedure, shortened: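 Induction of ABCB11 mRNA relative to 0.2% DMSO, measured at 48 h by qNPA chemiluminescence. Cultured human hepatocytes (two donors) received fresh dosing solutions at several concentrations on two consecutive days.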

[12] = read-out: Cytochrome P450 2C19 (Homo sapiens) (UniProt P33261); assay: CLD_CYP2C19_48hr: CellzDirect (CLD) Gene Expression Assay for xenobiotic metabolism (CYP2C19) at 48 hours (AID 2283700)
Procedure, shortened: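 CYP2C19 mRNA induction read by chemiluminescent quantitative nuclease protection assay after 48 h, with fresh compound added daily for two days to cultured human liver hepatocytes. Activity fitted upward against 0.2% DMSO vehicle.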

[13] = read-out: Broad substrate specificity ATP-binding cassette transporter ABCG2 (Homo sapiens) (UniProt Q9UNQ0); assay: CLD_ABCG2_48hr: CellzDirect (CLD) Gene Expression Assay for ABC Transporter (ABCG2) at 48 hours (AID 2283704)
Procedure, shortened: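 ABCG2 transcript measured at 48 h by quantitative nuclease protection (chemiluminescent) and fitted for increase relative to 0.2% DMSO. Hepatocyte cultures from separate donors got fresh compound daily over two days; morphology annotated cytotoxicity.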

[14] = read-out: alkyl and aryl transferase (GSTA2), GSTA2 (gene 2939); assay: CLD_GSTA2_48hr: CellzDirect (CLD) Gene Expression Assay for alkyl and aryl transferase (GSTA2) at 48 hours (AID 2283708);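 further: active means mRNA induction above DMSO vehicle baseline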
Procedure, shortened: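 GSTA2 mRNA quantified by qNPA chemiluminescence in human primary hepatocyte lysates after 48 h of daily fresh chemical dosing. Increases fitted against 0.2% DMSO vehicle baseline; cytotoxicity from morphology annotated yes/no.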

[15] = CCTE_Deisenroth_AIME_384WELL_CTox_Active: Cytotoxicity Assessment (CTOX) in CCTE's 384-well Estrogen Receptor Transactivation Assay with AIME metabolic competence (metabolism positive), Deisenroth Lab (AID 2284037);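 further: chemicals first conditioned 2 h by alginate-bound induced rat liver S9 before cells; activity means signal loss indicating cell death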
Procedure, shortened: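 VM7Luc4E2 breast cells received medium pre-incubated 2 h with chemical over alginate microspheres holding induced male Sprague Dawley rat liver S9; viability read 24 h later by protease-substrate fluorescence. Loss of signal, bidirectional fit, 0.002–200 uM.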

[16] = CCTE_Deisenroth_AIME_384WELL_CTox_Inactive: Cytotoxicity Assessment (CTOX) in CCTE's 384-well Estrogen Receptor Transactivation Assay without AIME metabolic competence (metabolism negative), Deisenroth Lab (AID 2284039);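 further: cell viability via live-cell protease substrate cleaved to fluorescent probe; cells exposed 24 h to medium preincubated 2 h with alginate-water beads without S9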
Procedure, shortened: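 Metabolism-negative arm: chemicals (10-point, 0.002 - 200 uM) preincubated 2 h with alginate-water lids, medium moved onto VM7Luc4E2 cells for 24 h. Fluorescent live-cell protease readout; bidirectional curve fit.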

[17] = molecular target: Nuclear receptor subfamily 1 group I member 2 (Homo sapiens) (UniProt O75469); assay: ATG_PXR_TRANS: Attagene TRANS-FACTORIAL HepG2 Assay for human Pregnane X Receptor (PXR) (AID 2283008)
Procedure, shortened: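 Trans-factorial format: exogenous NR-Gal4 fusion activity, not endogenous factor, in transfected human HepG2 liver cells. After 24 h dosing, RNA isolated, reverse-transcribed, amplified and resolved by capillary electrophoresis; induction scored versus DMSO.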

[18] = Tanguay_ZF_120hpf_PIG_legacy: (Legacy) Oregon State University Tanguay Lab 120 Hour Post-fertilization zebrafish Assay for Pigmentation Malformation (AID 2283650)
Procedure, shortened: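 Endpoint is incidence of abnormal pigmentation at 120 hpf in dechorionated 5D zebrafish exposed singly from 6 hpf at 28C, DMSO vehicle at 0.64%. Embryos dying by 24 or 120 hpf are excluded from scoring.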

[19] = read-out: Cytochrome P450 2C19 (Homo sapiens) (UniProt P33261); assay: CLD_CYP2C19_6hr: CellzDirect (CLD) Gene Expression Assay for xenobiotic metabolism (CYP2C19) at 6 hours (AID 2283678)
Procedure, shortened: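 CYP2C19 transcript induction was quantified by quantitative nuclease protection assay with chemiluminescent read-out, 6 h after dosing. Cells were primary human hepatocytes from two donor preparations, given fresh dosing solutions daily in 0.2% DMSO vehicle. Activity was relative to DMSO.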

[20] = read-out: organic anion transporter (SLCO1B1), SLCO1B1 (gene 10599); assay: CLD_SLCO1B1_24hr: CellzDirect (CLD) Gene Expression Assay for organic anion transporter (SLCO1B1) at 24 hours (AID 2283690)
Procedure, shortened: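 SLCO1B1 mRNA induction read at 24 h by quantitative nuclease protection assay (chemiluminescence), analyzed against DMSO baseline. Human hepatocyte cultures from separate donors received fresh dosing solutions daily; vehicle 0.2% DMSO; cytotoxicity flagged by phase-contrast morphology.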

In the case of `CC(C)C1CCC(Cc2ccc(Cl)cc2)C1(O)Cn1cncn1` (stereo not drawn), the outcome [1] is reported as “inactive”.
With `CNC(=O)Oc1ccc(N(C)C)c(C)c1` the AC50 [2] was inconclusive: 25.2 µM and the AC50 [3] was inconclusive: 177 µM.
For `O=c1ccc(=O)[nH][nH]1`, the outcome [4] was “inactive”, the AC50 [3] was inconclusive: 11.7 µM and the AC50 [5] was inconclusive: 20 µM. The outcome [6] was “inactive”, the outcome [7] was “inactive” and the outcome [8] was “inactive”. The outcome [9] was “inactive”, the outcome [10] was “inactive” and the outcome [11] was “inactive”. The AC50 [12] was inconclusive: 20 µM, the outcome [13] was “inactive” and the AC50 [14] was inconclusive: 38.1 µM. The AC50 [15] was inconclusive: 0.000358 µM and the AC50 [16] was inconclusive: 0.0031 µM.
With `CC(C)(OOC(C)(C)c1ccccc1)c1ccccc1` the AC50 [17] was active: 7.09 µM.
With `CCCCN(CCCCO)N=O` the outcome [2] was “inactive”.
For `C#CCC1=C(C)C(OC(=O)C2C(C=C(C)C)C2(C)C)CC1=O` (stereo not drawn), the outcome [18] was “inactive”, the AC50 [19] was inconclusive: 9.17 µM and the AC50 [8] was inconclusive: 3.97 µM. The outcome [20] was “inactive”, the AC50 [12] was inconclusive: 20 µM and the outcome [15] was “inactive”. The AC50 [16] was active: 144 µM.
With `C[CH2][Hg][S]c1ccccc1C(=O)O` the AC50 [3] was inconclusive: 0.0565 µM.
With `C1=Cc2cccc3cccc1c23` the AC50 [15] was inconclusive: 0.000464 µM and the AC50 [16] was inconclusive: 0.00147 µM.
In the case of `CCC(=O)c1ccc(Cl)cc1`, the AC50 [1] is reported as inconclusive: 1.99 µM.
With `COc1cc(OC)nc(NC(=O)NS(=O)(=O)c2cc(NC=O)ccc2C(=O)N(C)C)n1` the AC50 [4] was inconclusive: 0.0129 µM, the AC50 [2] was inconclusive: 50 µM and the outcome [5] was “inactive”. For the same molecule, the AC50 [19] was inconclusive: 20 µM, the outcome [9] was “inactive” and the outcome [20] was “inactive”. The outcome [10] was “inactive”, the outcome [11] was “inactive” and the AC50 [12] was inconclusive: 20 µM.
With `Nc1ccc(Oc2ccc(N)cc2)cc1` the AC50 [17] was inconclusive: 47.6 µM and the AC50 [16] was inconclusive: 100 µM.
In the case of `Cc1cccc(N)c1N`, the outcome [18] is reported as “inactive” and the AC50 [15] is reported as inconclusive: 0.000207 µM.
